This is an account of results in publication PMC8590693.

These are yes or no findings as the source states them, for the method shown. Binding can be weak; no strength is given.

The assay has as its target recombinant C-terminal domain of HSP90α (UniProt P07900). In words: AlphaScreen or HTRF; HSP90α (C-Terminal) Inhibitor Screening Assay Kit (BPS Bioscience); Optiplate-384; AlphaScreen microplate reader; control sample and samples with novobiocin, geldanamycin or NCT-58 (500 μM each); both purified. On the technique in general: Bead proximity is the source of the signal in Alpha formats.

For “peptidylprolyl isomerase D (from UniProt Q08752 1-370)”, the binding entry was “binds”.
